Article PMC6015033
Results are given in words; binding and its absence hold for the method and conditions named. Some results given as binding are weak or reduced against the parent protein; the word gives no strength.

Target: T1, MSMEG_6554, chain of the heterodimeric ABC exporter MSMEG_6553/54 (M. smegmatis) (M. smegmatis) (UniProt A0R6H8)
T1 sequence: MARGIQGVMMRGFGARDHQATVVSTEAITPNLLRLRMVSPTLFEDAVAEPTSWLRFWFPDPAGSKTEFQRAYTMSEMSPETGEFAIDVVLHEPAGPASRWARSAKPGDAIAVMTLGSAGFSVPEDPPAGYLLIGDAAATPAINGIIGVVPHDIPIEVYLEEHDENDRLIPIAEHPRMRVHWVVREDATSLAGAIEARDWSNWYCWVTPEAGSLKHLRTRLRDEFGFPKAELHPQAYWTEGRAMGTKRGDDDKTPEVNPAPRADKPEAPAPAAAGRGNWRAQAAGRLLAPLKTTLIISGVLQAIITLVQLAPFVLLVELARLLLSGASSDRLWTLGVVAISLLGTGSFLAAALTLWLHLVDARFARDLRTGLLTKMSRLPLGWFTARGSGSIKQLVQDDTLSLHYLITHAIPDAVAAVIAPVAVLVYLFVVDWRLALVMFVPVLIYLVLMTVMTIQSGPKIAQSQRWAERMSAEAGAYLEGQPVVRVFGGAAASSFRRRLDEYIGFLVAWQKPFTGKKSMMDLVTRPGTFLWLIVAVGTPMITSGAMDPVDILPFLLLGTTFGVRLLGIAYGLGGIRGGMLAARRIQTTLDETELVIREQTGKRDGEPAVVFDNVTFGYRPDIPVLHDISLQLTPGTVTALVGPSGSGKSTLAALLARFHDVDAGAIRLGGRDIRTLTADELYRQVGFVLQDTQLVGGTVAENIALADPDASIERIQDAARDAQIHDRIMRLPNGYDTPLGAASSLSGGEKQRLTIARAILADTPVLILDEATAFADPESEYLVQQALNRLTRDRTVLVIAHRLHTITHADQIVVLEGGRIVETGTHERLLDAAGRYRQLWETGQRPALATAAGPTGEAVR
Test: SEC; both purified

B1: MSMEG_6553, chain of the heterodimeric ABC exporter MSMEG_6553/54 (M. smegmatis) (protein, UniProt A0R6H7 1-576)
chain: MIRTLIALVPADKRGTLGLYTVLTVLSVVIRAAGTVLLVPLVAALFGDTPQDAWPWLGWLTAATAAGWIVDTTTSRLGFDLGFAVLDHTQHDVADRMPNIRLDWLTAENTATARAAIASTGPELVGLVVNLLTPLIGAVLLPAAIAVALVAVSPPLGLAALAGVVVLLGAMWASNRLSRKADTVADETNSAFTERIIEFARTQQALRAARRVEPARSLVGDALGAQHGAGVRLLAMQIPGQLLFSLASQLALILLAGMATWLTVRGELSVPEAVAMIVVVARYLEPFTSLSELTPAIESTRGTLGRIRAVLDAPTLTAGDAAPADTKSAPRIEFDCVTFGYGDHPVLDDVSFVLEPGSTTAIVGPSGSGKSTILSLIAGLHQPTEGRVLIDGVDAASLDDESRRAATSVVFQQPYLFDGSIRDNILVGDPGADEDRLAAAVRLARVDELTARLPNGDASKVGEAGAALSGGERQRVSIARALVKPAPVLLVDEATSALDTENEAAVVDALTADLRHRTRVIVAHRLASIRHADRVLFLDGGRIVEDGTIDGLLAAGGRFDEFWRRQHEAADWQITH
binding: binds
